According to article PMC8111780, “NMR structural analysis of the yeast cytochrome c oxidase subunit Cox13 and its interaction with ATP” (BMC Biology, 2021):
Results are given in words; binding and its absence hold for the method and conditions named. Some binding calls cover weakened binding; strength is not graded here.

Key:
[1] = molecular target: Cox13 (cytochrome c oxidase subunit Cox13) from S. cerevisiae, refolded in DPC micelles (S. cerevisiae) (UniProt P32799); experiment: solution NMR structure (intermolecular NOEs); 1:1 mixture of 15N,13C-labeled and unlabeled Cox13, mixed at the level of inclusion bodies; 13C/15N-filtered/edited NOESY-HSQC; 20 mM NaPi pH 6.5, 50 mM L-Arg, 50 mM L-Glu, 1 mM DTT, 30 mM DPC-d38, 40 °C; both purified
[2] = molecular target: Cox13 (cytochrome c oxidase subunit Cox13) from S. cerevisiae, refolded in DPC micelles (S. cerevisiae) (UniProt P32799); experiment: SDS-PAGE; refolded, purified Cox13; monomer runs at an apparent 16 kDa, and a fraction consistent with a dimer is seen; both purified

binding [2]: binds
B1: Cox13 (cytochrome c oxidase subunit Cox13) from S. cerevisiae, refolded in DPC micelles (natural protein)
chain: ASSLPPNALKPAFGPPDKVAAQKFKESLMATEKHAKDTSNMWVKISVWVALPAIALTAVNTYFVEKEHAEHREHLKHVPDSEWPRDYEFMNIRSKPFFWGDGDKTLFWNPVVNRHIEHDD
notes: Cox13, cytochrome c oxidase subunit of S. cerevisiae; the gene was cloned into pET-28a; predicted mass 15 kDa; residues assigned up to I125; Isotope-labelled (15N and/or 13C) or unlabelled, depending on the experiment; also called Cox13-DPC complex; CoxVIa in mammals (homolog)
binding [1]: binds
